Reference: paper PMC4786870
No constants are given. Whether binding was seen depends on the method and setting. Binding seen in cells or lysates may run through a third protein. Binding calls can cover weak binding; strength is not graded here.

Biological target: Tcf7l2 (endogenous, rat oligodendrocyte lineage cells) (rat (endogenous in primary rat iOLs/mOLs))
Assay: co-IP; endogenous proteins; 600 μg of lysate protein of rat iOLs or mOLs incubated with 3 μg anti-Tcf7l2, anti-Kaiso or anti-Sox10; western blot

B1: Kaiso/Zbtb33 (endogenous, rat iOLs) (protein, UniProt D3ZAN8 1-670)
chain: MESRKLISATDIQYSASLLNSLNEQRGHGLFCDVTVIVEDRKFRAHRNILSASSTYFHQLFSVAGQVVELSFIRAEIFAEILNYIYSSKIVRVRADLLDELIKSGQLLGVKFIAELGVPLSQVKSISGTVQDGTAETLPSSSNDKSPEIEKSKDEAQDNGAPVMPIITESFSLSAEDYEMKKIIVTDSDDDDDDDVIFCSEILPAKEDLPSNNTATQVQPNPASVAISEVTPCTSSNSPPVTNITPPQLPTPVNQSTLSQAQGSEELLVSSASTHLTPNIILLNQAPLTAPPSVSSSLPNHMSSSVNVLVQNQQAPNSAVTGNKAEEEEEILDDDDDIISSSPDSAVSNTSLVPQADASKSTTFDGSLTQKMQAPILPQEPPSNSLKISDVITRNTNDPGLRSKHVMEGQKIITLDTATEIEGLSTGCKVYANIGEDTYDIVIPVKDDPDGGEAKLENELPKTSGSEPSNKRMKVKHDDHYELIVDGRVYYICIVCKRSYVCLTSLRRHFNIHSWEKKYQCRYCDKVFPLAEYRTKHEIHHTGERRYQCLACGKSFINYQFMSSHIKSVHSQDPSGDSKLYRLHPCKSLQIRQYAYLSNKPSAMPVMKDDAVGYKVDAGKEPPVGTTSAPPQNKSTFWEDIFIQQENDSIFKQNVTDGSTEFEFIIPESY
binding: binds
